Article PMC3413713
Results are given in words; binding and its absence hold for the method and conditions named. Binding seen in cells or lysates may run through a third protein. Binding can be weak; no strength is given.

B1: hypo-phosphorylated TIMELESS (TIM) (protein, UniProt P49021 1-1398)
chain: MDWLLATPQLYSAFSSLGCLEGDTYVVNPNALAILEEINYKLTYEDQTLRTFRRAIGFGQNVRSDLIPLLENAKDDAVLESVIRILVNLTVPVECLFSVDVMYRTDVGRHTIFELNKLLYTSKEAFTEARSTKSVVEYMKHILESDPKLSPHKCDQINNCLLLLRNILHIPETHAHCVMPMMQSMPHGISMQNTILWNLFIQSIDKLLLYLMTCPQRAFWGVTMVQLIALIYKDQHVSTLQKLLSLWFEASLSESSEDNESNTSPPKQGSGDSSPMLTSDPTSDSSDNGSNGRGMGGGMREGTAATLQEVSRKGQEYQNAMARVPADKPDGSEEASDMTGNDSEQPGSPEQSQPAGESMDDGDYEDQRHRQLNEHGEEDEDEDEVEEEEYLQLGPASEPLNLTQQPADKVNNTTNPTSSAPQGCLGNEPFKPPPPLPVRASTSAHAQMQKFNESSYASHVSAVKLGQKSPHAGQLQLTKGKCCPQKRECPSSQSELSDCGYGTQVENQESISTSSNDDDGPQGKPQHQKPPCNTKPRNKPRTIMSPMDKKELRRKKLVKRSKSSLINMKGLVQHTPTDDDISNLLKEFTVDFLLKGYSYLVEELHMQLLSNAKVPIDTSHFFWLVTYFLKFAAQLELDMEHIDTILTYDVLSYLTYEGVSLCEQLELNARQEGSDLKPYLRRMHLVVTAIREFLQAIDTYNKVTHLNEDDKAHLRQLQLQISEMSDLRCLFVLLLRRFNPSIHSKQYLQDLVVTNHILLLILDSSAKLGGCQTIRLSEHITQFATLEVMHYYGILLEDFNNNGEFVNDCIFTMMHHIGGDLGQIGVLFQPIILKTYSRIWEADYELCDDWSDLIEYVIHKFMNTPPKSPLTIPTTSLTEMTKEHNQEHTVCSWSQEEMDTLYWYYVQSKKNNDIVGKIVKLFSNNGNKLKTRISIIQQLLQQDIITLLEYDDLMKFEDAEYQRTLLTTPTSATTESGIEIKECAYGKPSDDVQILLDLIIKENKAQHLLWLQRILIECCFVKLTLRSGLKVPEGDHIMEPVAYHCICKQKSIPVVQWNNEQSTTMLYQPFVLLLHKLGIQLPADAGSIFARIPDYWTPETMYGLAKKLGPLDKLNLKFDASELEDATASSPSRYHHTGPRNSLSSVSSLDVDLGDTEELALIPEVDAAVEKAHAMASTPSPSEIFAVPKTKHCNSIIRYTPDPTPPVPNWLQLVMRSKCNHRTGPSGDPSDCIGSSSTTVDDEGFGKSISAATSQAASTSMSTVNPTTTLSLNMLNTFMGSHNENSSSSGCGGTVSSLSMVALMSTGAAGGGGNTSGLEMDVDASMKSSFERLEVNGSHFSRANNLDQEYSAMVASVYEKEKELNSDNVSLASDLTRMYVSDEDDRLERTEIRVPHYH
modifications: hypo-phosphorylated (fast migrating form on the anti-TIM blot); sites not stated
B2: phosphorylated TIMELESS (TIM) (protein, UniProt P49021 1-1398)
chain: B1 chain
modifications: phosphorylated (slow migrating form on the anti-TIM blot); sites not stated

Columns and labels:
[1] = biological target: FLAG-tagged CULLIN-3 (CUL-3) (Drosophila); experiment: co-IP; anti-FLAG affinity gel (EZview Red) on 1 mg of total head proteins of tim>flag-Cul-3 flies, HE buffer (20 mM hepes pH 7.5, 0.1 M KCl, 10 mM EDTA) with 0.1% NP40; anti-TIM immunoblot; per^+ and per^0 backgrounds, with or without heterozygous Cul-3^gft2; flies collected at CT15 in DD
[2] = biological target: FLAG-tagged SUPERNUMERARY LIMBS (SLMB) (Drosophila); experiment: co-IP; anti-FLAG affinity gel (EZview Red) on 1 mg of total head proteins of slmb^m flies expressing FLAG-SLMB under tim-gal4, HE buffer (20 mM hepes pH 7.5, 0.1 M KCl, 10 mM EDTA) with 0.1% NP40; anti-TIM immunoblot; per^+ and per^0 backgrounds; different time points, two consecutive time points pooled in per^+

| Binder | binding [1] | binding [2] |
| --- | --- | --- |
| B1 | binds | binds |
| B2 | – | binds |
